PubChem BioAssay AID504793 | Drosophila RNAi Screening Center | 2011

Screen: 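Knock-downs allowing continued mitosis even though DNA is damaged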 (primary screen)
Cell system: Drosophila S2R+ cells
Reagent: long dsRNA against Drosophila genes, about 0.25 µg dsRNA per well
Timing: 4 days of dsRNA, then 4 hours of drug before read-out
Treatment: doxorubicin 0.5 µM for 4 hours to cause double-strand breaks, in cells also given a low, harmless dose of dsRNA against nbs to sensitise the assay
Measured: 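Per-well count of mitotic cells stained for phospho-histone H3 after doxorubicin exposure, used as mitotic index; counts are raw and not normalised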
Direction: mitotic cells: higher = more cells in mitosis, weaker G2 arrest
Call rule: 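a call needs confirmation in secondary tests, with other dsRNAs and a check of mitotic timing without damage, not just a high primary count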
Meaning of the calls: active = confirmed in follow-up tests; inactive = not confirmed
The screen tested about 23,000 reagents; shown is a random part of those that have a named target and a result. In the full data, 62 (0.27%) got an active call. 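Calls come from follow-up tests whose scores are not deposited, so confirmed genes may have low counts here; counts are not normalised per plate.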 Raw values vary from plate to plate and are shown uncorrected. Entries without a mark were called inactive. Reagents against one gene are numbered here. Names joined by + are all predicted targets of the reagent. Reagent sequences are not shown.

target | reagent no. | mitotic cells, replicate 1
corn (cornetto) | 1 | 4
corn (cornetto) | 2 | 4
corn (cornetto) | 3 | 5
CG13868 | 1 | 6
Mic26-27 (MICOS subunit 26/27) | 1 | 2
CG10301 | 1 | 11
ND-15 (NADH dehydrogenase (ubiquinone) 15 kDa subunit) | 1 | 6
JMJD5 (Jumonji domain containing 5) | 1 | 6
JMJD5 (Jumonji domain containing 5) | 2 | 7
mRpL12 (mitochondrial ribosomal protein L12) | 1 | 5
mRpL12 (mitochondrial ribosomal protein L12) | 2 | 1
strat (stratum) | 1 | 8
CG32262 | 1 | 8
CG32262 | 2 | 5
Ice2 (Interacts with the C terminus of ELL 2) | 1 | 8
l(2)dtl (lethal-(2)-denticleless) | 1 | 13
l(2)dtl (lethal-(2)-denticleless) | 2 | 5
TyrRS (Tyrosyl-tRNA synthetase) | 1 | 11
TyrRS (Tyrosyl-tRNA synthetase) | 2 | 12
Btnd (Biotinidase) | 1 | 13
Btnd (Biotinidase) | 2 | 5
Pdhb (Pyruvate dehydrogenase E1 beta subunit) | 1 | 7
Pdhb (Pyruvate dehydrogenase E1 beta subunit) | 2 | 5
CG32720 | 1 | 8
Noa36 | 1 | 9
CG31229 | 1 | 4
CG14017 | 1 | 3
Adar (Adenosine deaminase acting on RNA) | 1 | 19
CG17266 | 1 | 5
CG17266 | 2 | 8
CG17266 | 3 | 6
Cse1 (Chromosome segregation 1) | 1 | 13
Cse1 (Chromosome segregation 1) | 2 | 2
CG7330 | 1 | 8
CG7330 | 2 | 3
E(var)3-9 (Enhancer of variegation 3-9) | 1 | 2
E(var)3-9 (Enhancer of variegation 3-9) | 2 | 6
lncRNA:CR42862 (long non-coding RNA:CR42862) | 1 | 10
lncRNA:CR42862 (long non-coding RNA:CR42862) | 2 | 4
lncRNA:CR42862 (long non-coding RNA:CR42862) | 3 | 6
CG8607 | 1 | 4
l(2)03659 (lethal (2) 03659) | 1 | 10
l(2)03659 (lethal (2) 03659) | 2 | 9
Nfs1 (Nfs1 cysteine desulfurase) | 1 | 2
lark | 1 | 6
lark | 2 | 6
CG14102 | 1 | 6
Gug (Grunge) | 1 | 6
CG4822 | 1 | 5
for (foraging) | 1 | 10
for (foraging) | 2 | 11
for (foraging) | 3 | 4
for (foraging) | 4 | 10
CG30056 | 1 | 6
CG3652 | 1 | 3

Next part (17 carried over from the part before).
target | reagent no. | mitotic cells, replicate 1
lncRNA:CR42862 (long non-coding RNA:CR42862) | 2 | 4
lncRNA:CR42862 (long non-coding RNA:CR42862) | 3 | 6
CG8607 | 1 | 4
l(2)03659 (lethal (2) 03659) | 1 | 10
l(2)03659 (lethal (2) 03659) | 2 | 9
Nfs1 (Nfs1 cysteine desulfurase) | 1 | 2
lark | 1 | 6
lark | 2 | 6
CG14102 | 1 | 6
Gug (Grunge) | 1 | 6
CG4822 | 1 | 5
for (foraging) | 1 | 10
for (foraging) | 2 | 11
for (foraging) | 3 | 4
for (foraging) | 4 | 10
CG30056 | 1 | 6
CG3652 | 1 | 3
FRG1 (FSHD region gene 1) | 1 | 1
Pabp2 | 1 | 3
Brd8 (Bromodomain containing 8) | 1 | 7
Brd8 (Bromodomain containing 8) | 2 | 4
Ggamma1 (G protein gamma subunit 1) | 1 | 10
hook | 1 | 5
CG7785 | 1 | 11
CG1983 | 1 | 15
CG1542 | 1 | 7
CG1542 | 2 | 4
CG32811 | 1 | 12
az2 | 1 | 7
Nin (Ninein) | 1 | 5
Glut1 (Glucose transporter 1) | 1 | 16
Glut1 (Glucose transporter 1) | 2 | 3
CG12942 | 1 | 3
CG12942 | 2 | 7
sff (sugar-free frosting) | 1 | 2
exu (exuperantia) | 1 | 15
CG17931 + CG42446 | 1 | 9
Meltrin | 1 | 2
Meltrin | 2 | 8
Acsf2 (Acyl-CoA synthetase family member 2) | 1 | 5
Acsf2 (Acyl-CoA synthetase family member 2) | 2 | 8
CG3106 | 1 | 6
CG3106 | 2 | 7
CG3594 | 1 | 4
CG3594 | 2 | 12
Jhbp1 (Juvenile hormone binding protein 1) | 1 | 6
Jhbp1 (Juvenile hormone binding protein 1) | 2 | 2
CG42262 (retired record) | 1 | 7
CG42262 (retired record) | 2 | 5
CG13036 (retired record) | 1 | 3
CG33307 | 1 | 3
CG3328 | 1 | 8
CG3328 | 2 | 3
CG6567 | 1 | 8
Menl-2 + Menl-1 | 1 | 5
Menl-2 + Menl-1 | 2 | 1
Menl-2 + Menl-1 | 3 | 6
CG17698 | 1 | 6
CG2875 | 1 | 8
CG4198 | 1 | 2
CG4198 | 2 | 12
CG13875 | 1 | 5
ng1 (new glue 1) | 1 | 6
l(1)G0469 (lethal (1) G0469) | 1 | 6
l(1)G0469 (lethal (1) G0469) | 2 | 13
CG14636 | 1 | 7
CG14636 | 2 | 6
ITP (Ion transport peptide) | 1 | 4
CG11334 | 1 | 8
CG11334 | 2 | 3
lncRNA:CR32657 (long non-coding RNA:CR32657) | 1 | 15
lncRNA:CR32657 (long non-coding RNA:CR32657) | 2 | 10
CG2574 | 1 | 14
Theg (Testicular haploid expressed gene) | 1 | 7
rdgA (retinal degeneration A) | 1 | 5
rdgA (retinal degeneration A) | 2 | 9
rdgA (retinal degeneration A) | 3 | 13
rdgA (retinal degeneration A) | 4 | 10
rdgA (retinal degeneration A) | 5 | 3
rdgA (retinal degeneration A) | 6 | 12
CG14257 | 1 | 11
CG14257 | 2 | 4
Lip4 (Lipase 4) | 1 | 2
CG42686 (retired record) | 1 | 10
CG42686 (retired record) | 2 | 16
CG42686 (retired record) | 3 | 9
CG42686 (retired record) | 4 | 8
TwdlK (TweedleK) | 1 | 1
CG17026 | 1 | 4
CG17026 | 2 | 3
bora (aurora borealis) | 1 | 18
HLH54F | 1 | 5
CG31871 | 1 | 8
CG31871 | 2 | 3
CG31871 | 3 | 3
CG32655 | 1 | 9
CG14314 | 1 | 10
Cand1 (Cullin-associated and neddylation-dissociated 1) | 1 | 3
CG34355 | 1 | 14
CG34355 | 2 | 7
CG34355 | 3 | 12
CG34355 | 4 | 9
